Some of the results follow.
Assays:
Assay in all cases: log2 fold change, soluble protein after heating vs DMSO (PISA); higher = thermal stabilisation; K562 cells, 10 uM, 30 min; active = over 0.2 and 3.5 SD of the protein, either way, in both replicates (recomputed)
saracatinib = compound: CN1CCN(CCOc2cc(OC3CCOCC3)c3c(Nc4c(Cl)ccc5c4OCO5)ncnc3c2)CC1 [saracatinib]
Outline: (§1)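 K562 cells at 2×10^6 cells/mL were exposed to 10 μM compound for 30 min, then aliquots were heated for 3 min across 48°C-58°C, pooled, and extracted in PBS containing 0.5% NP-40 at 4°C. The supernatant after 21,000xg for 90 min was taken as soluble protein and measured by TMTpro 16plex LC-MS/MS with channel sums equalised. Thermal stability is reported relative to control samples, with values from duplicates. Fold changes are given on a log2 scale.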

By UniProt entry, the sequences of proteins in these tests, tags left out. Where a name states a change or a piece, a line headed by the entry shows the natural chain unless it says otherwise.
UniProt P55058, whole entry, looked up: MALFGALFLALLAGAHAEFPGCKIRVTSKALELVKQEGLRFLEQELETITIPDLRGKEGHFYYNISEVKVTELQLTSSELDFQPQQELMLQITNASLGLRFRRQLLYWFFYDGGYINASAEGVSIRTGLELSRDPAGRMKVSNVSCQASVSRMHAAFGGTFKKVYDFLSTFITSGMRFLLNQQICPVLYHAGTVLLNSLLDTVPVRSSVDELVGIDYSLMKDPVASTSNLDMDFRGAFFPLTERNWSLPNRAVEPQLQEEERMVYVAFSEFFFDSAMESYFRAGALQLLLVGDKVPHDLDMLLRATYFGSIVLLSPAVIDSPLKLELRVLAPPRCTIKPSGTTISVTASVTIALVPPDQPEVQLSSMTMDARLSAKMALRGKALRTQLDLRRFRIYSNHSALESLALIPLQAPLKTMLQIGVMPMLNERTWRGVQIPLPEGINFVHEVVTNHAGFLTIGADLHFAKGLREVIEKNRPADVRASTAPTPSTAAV
UniProt Q8NAT1: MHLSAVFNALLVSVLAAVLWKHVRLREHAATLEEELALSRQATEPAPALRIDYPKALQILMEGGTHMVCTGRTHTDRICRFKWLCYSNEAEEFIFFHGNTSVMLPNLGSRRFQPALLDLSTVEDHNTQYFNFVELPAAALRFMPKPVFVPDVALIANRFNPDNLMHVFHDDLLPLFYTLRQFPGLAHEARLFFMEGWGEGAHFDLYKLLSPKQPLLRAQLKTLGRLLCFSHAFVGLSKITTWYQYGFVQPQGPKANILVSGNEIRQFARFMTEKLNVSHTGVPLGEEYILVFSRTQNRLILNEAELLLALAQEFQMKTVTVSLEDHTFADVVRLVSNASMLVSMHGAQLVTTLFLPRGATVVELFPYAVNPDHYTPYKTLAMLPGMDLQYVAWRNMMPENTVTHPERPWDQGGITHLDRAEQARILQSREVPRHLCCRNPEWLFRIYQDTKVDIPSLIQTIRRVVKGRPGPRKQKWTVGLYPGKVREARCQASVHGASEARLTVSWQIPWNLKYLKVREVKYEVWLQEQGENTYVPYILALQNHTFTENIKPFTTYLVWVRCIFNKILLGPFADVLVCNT
UniProt Q6EEV4: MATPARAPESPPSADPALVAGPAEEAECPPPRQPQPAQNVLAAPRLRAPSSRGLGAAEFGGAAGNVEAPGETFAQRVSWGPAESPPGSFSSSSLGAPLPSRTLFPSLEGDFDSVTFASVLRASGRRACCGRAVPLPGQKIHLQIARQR
UniProt Q99541: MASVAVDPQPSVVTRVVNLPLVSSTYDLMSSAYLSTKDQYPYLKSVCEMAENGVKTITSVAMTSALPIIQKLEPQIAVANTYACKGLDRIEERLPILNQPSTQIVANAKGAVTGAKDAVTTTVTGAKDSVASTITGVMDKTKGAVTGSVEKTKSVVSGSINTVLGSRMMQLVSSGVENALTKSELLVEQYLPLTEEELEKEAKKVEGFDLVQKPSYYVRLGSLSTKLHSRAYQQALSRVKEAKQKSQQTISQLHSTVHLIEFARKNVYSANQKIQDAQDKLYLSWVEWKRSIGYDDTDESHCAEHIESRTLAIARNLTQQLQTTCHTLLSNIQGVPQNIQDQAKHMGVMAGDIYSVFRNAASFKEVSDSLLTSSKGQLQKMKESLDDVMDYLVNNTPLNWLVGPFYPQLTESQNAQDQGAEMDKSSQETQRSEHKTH
UniProt P28340: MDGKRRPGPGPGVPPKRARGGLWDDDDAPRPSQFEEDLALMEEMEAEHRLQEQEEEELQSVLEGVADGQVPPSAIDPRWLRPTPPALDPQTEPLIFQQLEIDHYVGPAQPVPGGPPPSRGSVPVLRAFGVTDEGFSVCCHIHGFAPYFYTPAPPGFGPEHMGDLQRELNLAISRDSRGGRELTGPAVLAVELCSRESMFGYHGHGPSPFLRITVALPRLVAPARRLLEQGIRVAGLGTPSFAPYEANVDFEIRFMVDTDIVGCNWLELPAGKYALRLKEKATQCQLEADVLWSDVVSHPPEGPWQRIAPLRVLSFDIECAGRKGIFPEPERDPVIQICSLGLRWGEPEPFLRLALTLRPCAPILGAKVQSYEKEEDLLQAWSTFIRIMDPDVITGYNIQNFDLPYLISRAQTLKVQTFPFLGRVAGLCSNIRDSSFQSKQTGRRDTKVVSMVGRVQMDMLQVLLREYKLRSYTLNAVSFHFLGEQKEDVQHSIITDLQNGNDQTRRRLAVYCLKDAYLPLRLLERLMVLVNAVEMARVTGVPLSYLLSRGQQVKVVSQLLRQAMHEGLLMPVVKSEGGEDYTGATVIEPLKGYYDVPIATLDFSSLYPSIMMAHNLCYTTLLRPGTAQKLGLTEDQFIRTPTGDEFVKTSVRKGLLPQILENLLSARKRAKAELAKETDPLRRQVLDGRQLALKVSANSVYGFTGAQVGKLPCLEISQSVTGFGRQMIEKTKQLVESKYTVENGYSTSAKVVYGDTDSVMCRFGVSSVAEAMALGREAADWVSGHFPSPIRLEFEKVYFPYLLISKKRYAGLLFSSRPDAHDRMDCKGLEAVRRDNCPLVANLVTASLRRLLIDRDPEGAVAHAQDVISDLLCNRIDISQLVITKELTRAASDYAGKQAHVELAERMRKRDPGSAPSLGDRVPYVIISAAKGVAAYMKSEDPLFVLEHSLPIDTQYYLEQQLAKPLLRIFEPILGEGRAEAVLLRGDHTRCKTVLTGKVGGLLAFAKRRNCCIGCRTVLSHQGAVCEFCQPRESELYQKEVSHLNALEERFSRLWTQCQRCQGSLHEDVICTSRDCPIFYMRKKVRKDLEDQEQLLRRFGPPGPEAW
UniProt P54098: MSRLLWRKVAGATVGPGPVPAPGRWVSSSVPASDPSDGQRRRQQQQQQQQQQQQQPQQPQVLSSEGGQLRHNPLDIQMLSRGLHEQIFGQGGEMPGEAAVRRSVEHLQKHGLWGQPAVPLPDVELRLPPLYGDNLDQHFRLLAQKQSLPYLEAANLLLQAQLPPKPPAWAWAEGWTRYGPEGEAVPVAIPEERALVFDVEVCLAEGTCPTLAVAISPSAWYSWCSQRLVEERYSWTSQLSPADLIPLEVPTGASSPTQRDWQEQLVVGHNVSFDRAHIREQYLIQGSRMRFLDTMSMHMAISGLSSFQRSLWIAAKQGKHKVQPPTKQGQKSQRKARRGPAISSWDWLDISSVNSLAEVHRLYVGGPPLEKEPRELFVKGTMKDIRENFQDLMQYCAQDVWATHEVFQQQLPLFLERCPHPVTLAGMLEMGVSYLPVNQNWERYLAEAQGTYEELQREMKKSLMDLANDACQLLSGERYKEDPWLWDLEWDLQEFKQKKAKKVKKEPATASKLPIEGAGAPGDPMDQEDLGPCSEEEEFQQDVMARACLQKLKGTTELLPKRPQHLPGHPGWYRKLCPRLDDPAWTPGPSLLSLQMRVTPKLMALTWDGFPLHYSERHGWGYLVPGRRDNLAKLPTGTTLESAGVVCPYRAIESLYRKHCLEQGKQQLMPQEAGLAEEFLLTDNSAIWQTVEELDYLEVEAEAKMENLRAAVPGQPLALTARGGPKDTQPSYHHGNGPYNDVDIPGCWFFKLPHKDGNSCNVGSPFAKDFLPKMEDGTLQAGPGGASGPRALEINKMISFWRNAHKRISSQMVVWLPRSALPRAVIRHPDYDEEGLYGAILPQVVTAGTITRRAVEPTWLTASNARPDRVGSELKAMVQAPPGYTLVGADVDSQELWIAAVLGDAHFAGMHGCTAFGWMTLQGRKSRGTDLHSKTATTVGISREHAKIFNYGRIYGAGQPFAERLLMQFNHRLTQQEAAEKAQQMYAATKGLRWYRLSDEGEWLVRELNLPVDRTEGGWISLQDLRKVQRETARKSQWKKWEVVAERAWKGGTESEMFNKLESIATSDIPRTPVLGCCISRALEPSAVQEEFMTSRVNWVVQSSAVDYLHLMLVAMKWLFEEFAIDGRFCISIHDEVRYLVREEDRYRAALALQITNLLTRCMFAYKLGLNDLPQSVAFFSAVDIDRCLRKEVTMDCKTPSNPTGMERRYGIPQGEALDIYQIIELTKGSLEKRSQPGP
UniProt Q9NW08: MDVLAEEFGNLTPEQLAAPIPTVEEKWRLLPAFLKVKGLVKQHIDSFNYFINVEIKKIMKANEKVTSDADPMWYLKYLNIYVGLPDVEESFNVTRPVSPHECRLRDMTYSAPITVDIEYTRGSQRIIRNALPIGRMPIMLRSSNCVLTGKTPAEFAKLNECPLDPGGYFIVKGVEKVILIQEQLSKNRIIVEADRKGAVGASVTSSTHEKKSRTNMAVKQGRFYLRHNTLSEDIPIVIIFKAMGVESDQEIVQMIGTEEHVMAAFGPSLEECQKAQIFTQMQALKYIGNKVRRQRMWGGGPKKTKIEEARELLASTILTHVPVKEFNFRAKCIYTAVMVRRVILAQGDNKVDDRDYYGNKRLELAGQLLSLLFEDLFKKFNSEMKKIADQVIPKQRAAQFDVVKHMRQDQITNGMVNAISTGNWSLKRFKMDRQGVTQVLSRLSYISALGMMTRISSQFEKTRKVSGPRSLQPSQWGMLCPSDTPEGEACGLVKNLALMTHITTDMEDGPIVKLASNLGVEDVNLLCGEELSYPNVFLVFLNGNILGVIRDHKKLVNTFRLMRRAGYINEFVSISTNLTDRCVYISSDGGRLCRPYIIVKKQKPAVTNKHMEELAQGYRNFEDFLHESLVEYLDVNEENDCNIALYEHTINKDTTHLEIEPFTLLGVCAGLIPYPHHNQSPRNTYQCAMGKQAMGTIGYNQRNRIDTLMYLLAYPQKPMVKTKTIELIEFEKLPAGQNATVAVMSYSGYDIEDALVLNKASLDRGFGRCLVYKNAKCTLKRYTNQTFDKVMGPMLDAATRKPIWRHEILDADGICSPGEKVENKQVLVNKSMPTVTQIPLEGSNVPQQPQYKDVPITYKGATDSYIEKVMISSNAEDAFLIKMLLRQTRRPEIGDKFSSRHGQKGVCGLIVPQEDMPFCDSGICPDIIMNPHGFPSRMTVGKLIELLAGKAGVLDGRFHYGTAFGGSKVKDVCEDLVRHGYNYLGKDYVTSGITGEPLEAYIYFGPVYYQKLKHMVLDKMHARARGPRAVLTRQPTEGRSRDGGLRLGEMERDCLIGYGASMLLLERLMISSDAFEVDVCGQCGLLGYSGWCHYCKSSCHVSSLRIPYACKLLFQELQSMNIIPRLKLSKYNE
UniProt Q8IY26: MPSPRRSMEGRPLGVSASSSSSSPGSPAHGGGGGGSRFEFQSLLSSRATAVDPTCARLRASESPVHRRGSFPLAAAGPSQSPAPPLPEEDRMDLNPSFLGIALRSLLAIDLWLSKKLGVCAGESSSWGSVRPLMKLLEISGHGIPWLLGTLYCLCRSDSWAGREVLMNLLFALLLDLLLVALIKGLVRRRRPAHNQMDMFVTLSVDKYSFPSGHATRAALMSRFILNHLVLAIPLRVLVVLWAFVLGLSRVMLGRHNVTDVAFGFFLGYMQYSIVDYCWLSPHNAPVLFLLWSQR
UniProt Q9BX97: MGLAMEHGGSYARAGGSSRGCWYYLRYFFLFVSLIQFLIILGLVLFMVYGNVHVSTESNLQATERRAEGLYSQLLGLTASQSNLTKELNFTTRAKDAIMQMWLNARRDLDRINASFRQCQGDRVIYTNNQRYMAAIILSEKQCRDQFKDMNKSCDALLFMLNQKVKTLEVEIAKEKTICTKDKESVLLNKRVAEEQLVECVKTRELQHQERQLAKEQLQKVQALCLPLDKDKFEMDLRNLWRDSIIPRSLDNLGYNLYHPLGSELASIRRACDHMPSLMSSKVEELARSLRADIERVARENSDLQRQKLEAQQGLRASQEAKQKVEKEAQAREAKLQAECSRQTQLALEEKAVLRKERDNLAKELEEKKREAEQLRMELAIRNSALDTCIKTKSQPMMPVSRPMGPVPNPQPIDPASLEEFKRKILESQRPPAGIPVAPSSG
UniProt Q9H307: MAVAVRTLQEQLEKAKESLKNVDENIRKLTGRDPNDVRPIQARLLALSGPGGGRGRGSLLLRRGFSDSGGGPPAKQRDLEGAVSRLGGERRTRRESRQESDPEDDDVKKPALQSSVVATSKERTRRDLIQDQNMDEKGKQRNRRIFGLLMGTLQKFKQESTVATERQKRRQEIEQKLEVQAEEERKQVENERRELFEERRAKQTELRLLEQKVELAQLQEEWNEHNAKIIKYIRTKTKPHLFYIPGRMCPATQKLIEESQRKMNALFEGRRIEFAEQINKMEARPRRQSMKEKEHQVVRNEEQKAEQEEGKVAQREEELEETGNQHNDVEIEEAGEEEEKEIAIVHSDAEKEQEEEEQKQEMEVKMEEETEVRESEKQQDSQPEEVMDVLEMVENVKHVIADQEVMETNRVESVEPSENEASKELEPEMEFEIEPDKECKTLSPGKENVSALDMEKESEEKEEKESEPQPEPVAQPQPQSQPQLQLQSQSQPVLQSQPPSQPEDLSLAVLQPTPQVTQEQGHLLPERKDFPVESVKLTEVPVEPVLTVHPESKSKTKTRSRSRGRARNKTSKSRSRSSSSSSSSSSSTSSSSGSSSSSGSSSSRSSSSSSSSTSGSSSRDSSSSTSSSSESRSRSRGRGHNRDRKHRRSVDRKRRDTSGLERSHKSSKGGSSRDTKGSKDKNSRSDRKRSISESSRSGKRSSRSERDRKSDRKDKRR

sotrastaurin = compound: CN1CCN(c2nc(C3=C(c4c[nH]c5ccccc45)C(=O)NC3=O)c3ccccc3n2)CC1 [sotrastaurin]
Outline: as §1

alvocidib = compound: CN1CC[C@H](c2c(O)cc(O)c3c(=O)cc(-c4ccccc4Cl)oc23)[C@H](O)C1 [alvocidib]
Outline: as §1

[1] = compound: CNC(=O)C1=CC=CC=C1NC2=NC(=NC=C2Cl)NC3=C(C=C(C=C3)N4CCOCC4)OC
Outline: as §1

defactinib = compound: CNC(=O)c1ccc(Nc2ncc(C(F)(F)F)c(NCc3nccnc3N(C)S(C)(=O)=O)n2)cc1 [defactinib]
Outline: as §1

rucaparib = compound: CNCc1ccc(-c2[nH]c3cc(F)cc4c3c2CCNC4=O)cc1 [rucaparib]
Outline: as §1

[2] = compound: CNc1nc(-c2ccc3c(N)n[nH]c3c2)cc(N2C[C@@H](C(=O)NC3CCCCC3)CC[C@H]2C)n1
Outline: as §1

encorafenib = compound: COC(=O)N[C@@H](C)CNc1nccc(-c2cn(C(C)C)nc2-c2cc(Cl)cc(NS(C)(=O)=O)c2F)n1 [encorafenib]
Outline: as §1

[3] = compound: COC(=O)[C@H](CCSC)NC(=O)C1=C(C=C(C=C1)NC[C@H](CS)N)C2=CC=CC=C2
Outline: as §1

[4] = compound: COC1=CC=C(C=C1)CN2C=CC3=C2C=C(C=C3)C(=O)NO
Outline: as §1

filanesib = compound: CON(C)C(=O)N1N=C(c2cc(F)ccc2F)S[C@@]1(CCCN)c1ccccc1 [filanesib]
Outline: as §1

zotarolimus = compound: CO[C@H]1C[C@@H]2CC[C@@H](C)[C@@](O)(O2)C(=O)C(=O)N2CCCC[C@H]2C(=O)O[C@H]([C@H](C)C[C@@H]2CC[C@H](n3cnnn3)[C@H](OC)C2)CC(=O)[C@H](C)/C=C(\C)[C@@H](O)[C@@H](OC)C(=O)[C@H](C)C[C@H](C)/C=C/C=C/C=C/1C [zotarolimus]
Outline: as §1

alisertib = compound: COc1cc(Nc2ncc3c(n2)-c2ccc(Cl)cc2C(c2c(F)cccc2OC)=NC3)ccc1C(=O)O [alisertib]
Outline: as §1

[5] = compound: COc1cc2nc(-c3cc(F)ccc3O)nc(N[C@@H]3CNC[C@H]3C(C)(C)O)c2cc1OC
Outline: as §1

gefitinib = compound: COc1cc2ncnc(Nc3ccc(F)c(Cl)c3)c2cc1OCCCN1CCOCC1 [gefitinib]
Outline: as §1

[6] = compound: COc1cccc2cc(-c3nc([C@H]4CC[C@H](C(=O)O)CC4)n4ncnc(N)c34)[nH]c12
Outline: as §1

lapatinib = compound: CS(=O)(=O)CCNCc1ccc(-c2ccc3ncnc(Nc4ccc(OCc5cccc(F)c5)c(Cl)c4)c3c2)o1 [lapatinib]
Outline: as §1

pictilisib = compound: CS(=O)(=O)N1CCN(Cc2cc3nc(-c4cccc5[nH]ncc45)nc(N4CCOCC4)c3s2)CC1 [pictilisib]
Outline: as §1

idasanutlin = compound: COc1cc(C(=O)O)ccc1NC(=O)[C@@H]1N[C@@H](CC(C)(C)C)[C@](C#N)(c2ccc(Cl)cc2F)[C@H]1c1cccc(Cl)c1F [idasanutlin]
Outline: as §1

Tubastatin A = compound: CN1CCc2c(c3ccccc3n2Cc2ccc(C(=O)NO)cc2)C1 [Tubastatin A]
Outline: as §1

Measured: log2 fold change

PLTP (UniProt P55058)
inactive: saracatinib 0.046 | sotrastaurin 0.05 | alvocidib 0.038 | [1] 0.055 | defactinib -0.002 | rucaparib -0.117 | [2] -0.035 | encorafenib 0.053 | [3] 0.042 | [4] -0.18 | filanesib 0.129 | zotarolimus 0.022 | alisertib -0.034 | [5] -0.424 | gefitinib -0.096 | [6] 0.037 | lapatinib 0.045 | pictilisib 0.089

POMGNT2 (UniProt Q8NAT1)
inactive: saracatinib 0.127 | sotrastaurin -0.029 | alvocidib -0.067 | [1] -0.061 | defactinib 0.035 | [2] 0.014 | [3] -0.009 | [4] -0.095 | filanesib 0.108 | zotarolimus 0.152 | idasanutlin 0.108 | alisertib -0.251 | [5] 0.079 | [6] -0.06 | lapatinib -0.061 | pictilisib -0.105

POLR1B isoform 3 (UniProt Q9H9Y6)
inactive: saracatinib -0.001 | sotrastaurin 0.125 | alvocidib 0.085 | Tubastatin A 0.098 | [1] -0.065 | defactinib 0.022 | [2] 0.005 | [3] 0.014 | [4] -0.097 | filanesib 0.085 | zotarolimus 0.081 | alisertib 0.155 | gefitinib 0.067 | [6] 0 | pictilisib -0.048

POLR2M (UniProt Q6EEV4)
inactive: saracatinib 0.011 | sotrastaurin -0.015 | Tubastatin A -0.131 | [1] 0.097 | defactinib -0.081 | rucaparib -0.145 | [2] -0.084 | encorafenib -0.047 | [3] 0.026 | [4] -0.046 | filanesib 0.076 | zotarolimus 0.034 | idasanutlin 0.046 | alisertib -0.144 | [5] -0.063 | gefitinib 0.076 | [6] -0.033 | lapatinib -0.084

POLR3K (UniProt Q9Y2Y1)
inactive: saracatinib 0.052 | sotrastaurin -0.049 | Tubastatin A 0.044 | [1] -0.035 | defactinib -0.086 | rucaparib 0.089 | [2] -0.098 | encorafenib -0.019 | [3] 0.015 | [4] -0.078 | filanesib -0.03 | zotarolimus -0.063 | idasanutlin 0.006 | alisertib -0.156 | [5] 0.01 | gefitinib -0.023 | [6] 0.044 | lapatinib 0.057 | pictilisib -0.04

PLIN2 (UniProt Q99541)
active: filanesib -0.44 | [5] -0.891
inactive: saracatinib -0.033 | sotrastaurin -0.243 | Tubastatin A 0.015 | [1] 0.026 | defactinib -0.006 | rucaparib -0.012 | [2] -0.001 | encorafenib 0.002 | [3] 0.047 | [4] -0.014 | zotarolimus -0.041 | idasanutlin -0.107 | alisertib 0.058 | gefitinib 0.003 | [6] 0.028 | lapatinib -0.093 | pictilisib 0.023

POLD1 (UniProt P28340)
inactive: saracatinib 0.018 | sotrastaurin -0.052 | Tubastatin A 0.055 | [1] -0.01 | defactinib -0.115 | rucaparib -0.004 | [2] -0.004 | encorafenib 0.131 | [3] -0.029 | [4] 0.025 | filanesib -0.038 | zotarolimus 0.007 | idasanutlin 0.024 | alisertib -0.042 | [5] -0.006 | gefitinib 0.007 | [6] 0.047 | lapatinib 0.01 | pictilisib 0

POLG (UniProt P54098)
inactive: saracatinib 0.025 | sotrastaurin 0.05 | alvocidib -0.04 | Tubastatin A 0.055 | [1] 0.075 | defactinib -0.034 | [2] -0.264 | [3] 0.056 | [4] -0.06 | filanesib -0.033 | zotarolimus -0.038 | idasanutlin 0.053 | alisertib -0.001 | [5] 0.187 | gefitinib 0.131 | [6] -0.073 | lapatinib -0.179 | pictilisib 0.145

POLR3B (UniProt Q9NW08)
inactive: saracatinib -0.056 | sotrastaurin -0.129 | Tubastatin A -0.045 | [1] -0.004 | defactinib -0.03 | rucaparib -0.032 | [2] -0.047 | encorafenib 0.039 | [3] -0.028 | [4] 0.026 | filanesib 0.065 | zotarolimus 0.075 | idasanutlin 0.008 | alisertib -0.086 | [5] 0.08 | gefitinib 0.105 | [6] -0.135 | lapatinib 0.008 | pictilisib -0.019

POLR2L (UniProt P62875)
inactive: saracatinib -0.042 | sotrastaurin -0.057 | alvocidib 0.026 | Tubastatin A 0.118 | [1] 0.039 | defactinib 0.149 | rucaparib 0.113 | [2] 0.028 | encorafenib 0.062 | [3] -0.017 | filanesib 0.085 | zotarolimus 0.035 | idasanutlin 0.041 | alisertib -0.006 | [5] 0.122 | gefitinib -0.05 | [6] -0.001 | lapatinib 0.066 | pictilisib 0.027

PLPP6 (UniProt Q8IY26)
inactive: saracatinib -0.134 | sotrastaurin 0.039 | alvocidib 0.121 | Tubastatin A -0.084 | [1] -0.064 | defactinib -0.141 | [2] -0.137 | [3] 0.107 | [4] 0.04 | filanesib -0.044 | zotarolimus -0.168 | idasanutlin 0 | alisertib -0.034 | [5] -0.128 | gefitinib -0.001 | [6] 0.034 | lapatinib 0.299 | pictilisib -0.246

PPIL4 (UniProt Q8WUA2)
inactive: saracatinib -0.012 | sotrastaurin -0.072 | Tubastatin A -0.005 | [1] -0.123 | defactinib -0.108 | rucaparib 0.07 | [2] 0.024 | encorafenib 0.086 | [3] -0.031 | [4] -0.001 | filanesib 0.116 | zotarolimus 0.032 | idasanutlin 0.101 | alisertib -0.003 | [5] 0.015 | gefitinib 0.002 | [6] -0.005 | lapatinib 0.02 | pictilisib 0.018

PNMT (UniProt P11086)
inactive: saracatinib -0.318 | sotrastaurin -0.02 | alvocidib -0.315 | Tubastatin A 0.028 | [1] 0.107 | [2] 0.062 | filanesib -0.251 | zotarolimus 0.031 | idasanutlin -0.031 | [5] 0.21 | lapatinib -0.003

PLVAP (UniProt Q9BX97)
inactive: saracatinib 0.009 | sotrastaurin 0.064 | alvocidib -0.095 | Tubastatin A -0.071 | [1] 0.102 | defactinib 0.091 | rucaparib -0.111 | [2] -0.004 | encorafenib 0 | [3] -0.051 | filanesib -0.078 | zotarolimus -0.424 | idasanutlin -0.11 | alisertib -0.092 | [5] 0.116 | gefitinib -0.011 | [6] 0.006 | lapatinib 0.036 | pictilisib 0.012

POLA1 (UniProt P09884)
inactive: saracatinib 0.006 | sotrastaurin -0.096 | Tubastatin A 0.025 | [1] 0.079 | defactinib -0.156 | rucaparib -0.126 | [2] -0.016 | encorafenib -0.005 | [3] -0.035 | [4] 0.053 | filanesib -0.023 | zotarolimus 0.008 | idasanutlin 0.003 | alisertib -0.053 | [5] 0.016 | gefitinib 0.015 | [6] -0.008 | lapatinib -0.005 | pictilisib 0.033

POGZ (UniProt Q7Z3K3)
inactive: saracatinib -0.134 | sotrastaurin -0.186 | Tubastatin A -0.071 | [1] 0.056 | defactinib -0.162 | rucaparib 0.196 | [2] 0.136 | encorafenib -0.02 | [3] -0.043 | [4] -0.066 | filanesib -0.021 | zotarolimus 0.008 | idasanutlin 0.01 | [5] 0.095 | lapatinib -0.086 | pictilisib 0.082

POLB (UniProt P06746)
inactive: saracatinib -0.21 | sotrastaurin -0.16 | Tubastatin A 0.138 | [1] 0.062 | rucaparib 0.095 | [2] 0.05 | encorafenib 0.031 | filanesib -0.155 | zotarolimus 0.215 | [5] 0.037 | gefitinib 0.199 | lapatinib -0.006 | pictilisib -0.022

Reprinted at random: 2 entries already listed, in no set order.
POLR1B isoform 3 (UniProt Q9H9Y6)
inactive: saracatinib -0.001 | sotrastaurin 0.125 | alvocidib 0.085 | Tubastatin A 0.098 | [1] -0.065 | defactinib 0.022 | [2] 0.005 | [3] 0.014 | [4] -0.097 | filanesib 0.085 | zotarolimus 0.081 | alisertib 0.155 | gefitinib 0.067 | [6] 0 | pictilisib -0.048

POLD1 (UniProt P28340)
inactive: saracatinib 0.018 | sotrastaurin -0.052 | Tubastatin A 0.055 | [1] -0.01 | defactinib -0.115 | rucaparib -0.004 | [2] -0.004 | encorafenib 0.131 | [3] -0.029 | [4] 0.025 | filanesib -0.038 | zotarolimus 0.007 | idasanutlin 0.024 | alisertib -0.042 | [5] -0.006 | gefitinib 0.007 | [6] 0.047 | lapatinib 0.01 | pictilisib 0

Later entries

PNN (UniProt Q9H307)
inactive: saracatinib -0.037 | sotrastaurin -0.044 | [1] -0.067 | rucaparib 0.303 | [2] -0.071 | encorafenib -0.174 | [4] -0.004 | filanesib 0.083 | zotarolimus -0.047 | idasanutlin 0.125 | alisertib -0.017 | [5] -0.14 | gefitinib 0.031 | [6] 0.056 | lapatinib -0.037 | pictilisib -0.015

— the supplement of paper PMC10849652
